Reference: paper PMC5789822
These are yes or no findings as the source states them, for the method shown. Some binding calls cover weakened binding; strength is not graded here. For some assays here: Tags and fused reporters may be left off the sequences shown.

Key:
[1] = target: T1, GST-Gas6, Q14393; assay: pull-down; His-PGRN and GST-Gas6 mixed in HBS-EP with 1.5 mM CaCl2, 4 °C for 6 h; pulled down with Ni-NTA agarose or glutathione-Sepharose, washed five times with PBS; both purified; conditions: remark: other sources report otherwise
T1 chain: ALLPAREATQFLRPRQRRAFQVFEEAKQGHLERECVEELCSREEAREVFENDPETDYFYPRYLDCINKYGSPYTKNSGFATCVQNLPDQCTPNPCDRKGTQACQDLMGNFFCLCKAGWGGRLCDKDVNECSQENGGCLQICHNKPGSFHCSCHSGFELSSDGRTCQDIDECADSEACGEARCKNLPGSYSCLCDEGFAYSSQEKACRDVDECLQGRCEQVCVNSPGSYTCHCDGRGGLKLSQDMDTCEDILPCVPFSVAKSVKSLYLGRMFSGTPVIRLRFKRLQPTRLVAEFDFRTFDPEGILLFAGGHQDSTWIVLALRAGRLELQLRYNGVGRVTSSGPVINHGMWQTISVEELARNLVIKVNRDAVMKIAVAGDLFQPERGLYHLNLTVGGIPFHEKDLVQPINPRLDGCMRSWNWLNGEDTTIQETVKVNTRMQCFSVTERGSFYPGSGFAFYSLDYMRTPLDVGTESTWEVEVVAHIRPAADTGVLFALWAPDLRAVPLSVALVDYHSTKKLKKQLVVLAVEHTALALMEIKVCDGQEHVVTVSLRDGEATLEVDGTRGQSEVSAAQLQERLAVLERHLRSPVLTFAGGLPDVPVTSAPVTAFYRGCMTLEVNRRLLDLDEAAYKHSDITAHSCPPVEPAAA

[2] = target: T2, Gas6, Q14393; assay: SPR; Biacore T100; anti-Gas6 antibody immobilised, Gas6 captured, PGRN (or BDNF) injected at 10 ul/min; both purified; conditions: remark: other sources report otherwise
T2 chain: T1 chain

B1: full-length PGRN, P28799 18-593 (protein)
chain: TRCPDGQFCPVACCLDPGGASYSCCRPLLDKWPTTLSRHLGGPCQVDAHCSAGHSCIFTVSGTSSCCPFPEAVACGDGHHCCPRGFHCSADGRSCFQRSGNNSVGAIQCPDSQFECPDFSTCCVMVDGSWGCCPMPQASCCEDRVHCCPHGAFCDLVHTRCITPTGTHPLAKKLPAQRTNRAVALSSSVMCPDARSRCPDGSTCCELPSGKYGCCPMPNATCCSDHLHCCPQDTVCDLIQSKCLSKENATTDLLTKLPAHTVGDVKCDMEVSCPDGYTCCRLQSGAWGCCPFTQAVCCEDHIHCCPAGFTCDTQKGTCEQGPHQVPWMEKAPAHLSLPDPQALKRDVPCDNVSSCPSSDTCCQLTSGEWGCCPIPEAVCCSDHQHCCPQGYTCVAEGQCQRGSEIVAGLEKMPARRASLSHPRDIGCDQHTSCPVGQTCCPSLGGSWACCQLPHAVCCEDRQHCCPAGYTCNVKARSCEKEVVSAQPATFLARSPHVGVKDVECGEGHFCHDNQTCCRDNRQGWACCPYRQGVCCADRRHCCPAGFRCAARGTKCLRREAPRWDAPLRDPALRQLL
binding [1]: binds | binding [2]: binds
